From paper PMC7917804
Positions count from the first letter of the chain named. No constants are given. Whether binding was seen depends on the method and setting. Binding seen in cells or lysates may run through a third protein. Binding calls can cover weak binding; strength is not graded here. For some assays here: Tags and fused reporters may be left off the sequences shown.

Legend:
Test in all cases: co-IP; lysates of HeLa cells expressing FHS-tagged TNRC6A-SD fragments (collected 24 h after transfection) or full-length TNRC6A (36 h), anti-FLAG antibody beads 2 h at 4 °C, lysis buffer with 140 mM NaCl, wash buffer with 300 mM NaCl and 0.5% NP40; endogenous CNOT1, CNOT9 and PABP detected by Western …
[1] = biological target: T1, FLAG-HA-SBP (FHS)-tagged TNRC6A-SD-WT (human) (UniProt Q8NDV7)
T1 sequence: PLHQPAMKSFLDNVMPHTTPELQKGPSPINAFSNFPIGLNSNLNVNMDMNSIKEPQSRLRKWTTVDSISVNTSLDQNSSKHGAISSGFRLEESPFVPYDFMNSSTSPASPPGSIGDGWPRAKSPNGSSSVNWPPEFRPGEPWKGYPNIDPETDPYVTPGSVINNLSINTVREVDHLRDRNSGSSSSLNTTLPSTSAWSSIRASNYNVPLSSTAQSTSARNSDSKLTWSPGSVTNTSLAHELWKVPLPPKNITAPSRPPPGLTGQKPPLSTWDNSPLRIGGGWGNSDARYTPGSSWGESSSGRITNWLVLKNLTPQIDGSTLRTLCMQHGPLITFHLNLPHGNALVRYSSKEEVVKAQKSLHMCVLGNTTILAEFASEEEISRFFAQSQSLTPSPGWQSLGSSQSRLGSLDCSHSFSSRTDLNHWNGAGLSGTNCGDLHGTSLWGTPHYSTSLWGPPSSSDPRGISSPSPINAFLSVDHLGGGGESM

[2] = biological target: T2, FHS-TNRC6A-SD-S1616D/S1691D (human) (UniProt Q8NDV7)
T2 sequence: T1 sequence with S393D, S468D

[3] = biological target: T3, FHS-TNRC6A-SD-S1616A/S1691A (human) (UniProt Q8NDV7)
T3 sequence: T1 sequence with S393A, S468A

[4] = biological target: T4, FHS-TNRC6A-SD-S1332D/S1346D (human) (UniProt Q8NDV7)
T4 sequence: T1 sequence with S109D, S123D

[5] = biological target: T5, FHS-TNRC6A-SD-S1332A/S1346A (human) (UniProt Q8NDV7)
T5 sequence: T1 sequence with S109A, S123A

Measured: binding

poly(A)-binding protein (PABP) (human (endogenous in HeLa))
binds: all assays above
